According to US6884577B2, “Methods for screening compounds for estrogenic activity” (The Regents of the University of California, priority 1993, dated 2005):

Tests used:
[1] = test system: HE15 activation of AP-1 activity; assay: Inhibitor screen: HE15 (constitutive ER) activation of AP-1 activity; format: cell-based; conditions: HeLa cells
Experimental: (§1) An estrogen receptor (ER) was transiently transfected into either HeLa or HepG2 cells along with an AP-1 responsive reporter gene, Coll73-LUC. The transformed cells were then contacted with antiestrogens or estrogen in combination with prospective inhibitor drugs. In addition, a shortened constitutive version of the ER (HE15) that activates AP-1 activity in a cell specific manner which parallels the hormone dependent activity of native ER was also used. Luciferase was measured in cell extracts as an indication of AP-1 dependent promoter activity.

[2] = test system: ER activation of AP-1 (Coll73-LUC); assay: Inhibitor screen: ER transiently transfected with Coll73-LUC in HeLa or HepG2 cells, hormone plus prospective inhibitor; format: cell-based
Experimental: as §1

CN[C@@H]1C[C@H]2O[C@@](C)([C@@H]1OC)n1c3ccccc3c3c4c(c5c6ccccc6n2c5c31)C(=O)NC4 [staurosporine]
inhibition of the activation of AP-1 activity by HE15 [1]: inhibit | inhibition of hormone action at AP-1 sites ([2]; HeLa or HepG2 cells, Coll73-LUC): inhibit hormone action at AP-1 sites | inhibition of ER activation of the collagenase promoter ([2]; HepG2 cells, native ER with hormone): inhibited
